According to patent US20130225503A1, “TEX14 PEPTIDES AS NOVEL ANTITUMOR AGENTS” (Baylor Licnensing Group, priority 2009, published 2013):
No constants are given. Whether binding was seen depends on the method and setting. For some of these results: Binding seen in cells or lysates may run through a third protein. Some binding calls cover weakened binding; strength is not graded here. For some of these results: Sequences can lack the tags named with a protein. One block for each molecule: values may come before it.

Protein sequences, listed by entry. Tags and fused reporters are not part of them. Residues count along the entry.
UniProt Q99816, residues 131-190: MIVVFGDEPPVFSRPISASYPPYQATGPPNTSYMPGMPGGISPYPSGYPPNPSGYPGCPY
UniProt Q8WUM4, residues 771-830: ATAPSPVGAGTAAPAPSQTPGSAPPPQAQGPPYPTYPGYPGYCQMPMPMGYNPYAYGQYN

How the values were obtained:
[1] = target: T1, hinge region of human CEP55 (CEP) (human) (UniProt Q53EZ4); assay: mammalian two-hybrid in HEK293T cells (mCherry / Renilla luciferase)
T1 sequence (looked up): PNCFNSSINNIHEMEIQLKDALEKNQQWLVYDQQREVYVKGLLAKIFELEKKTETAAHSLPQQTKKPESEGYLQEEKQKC

[2] = target: T2, MYC-CEP55 (full-length mouse CEP55 with N-terminal MYC tag) (mouse) (UniProt Q8BT07); assay: co-immunoprecipitation from HEK293T cells, both directions, Western blot
T2 sequence (looked up): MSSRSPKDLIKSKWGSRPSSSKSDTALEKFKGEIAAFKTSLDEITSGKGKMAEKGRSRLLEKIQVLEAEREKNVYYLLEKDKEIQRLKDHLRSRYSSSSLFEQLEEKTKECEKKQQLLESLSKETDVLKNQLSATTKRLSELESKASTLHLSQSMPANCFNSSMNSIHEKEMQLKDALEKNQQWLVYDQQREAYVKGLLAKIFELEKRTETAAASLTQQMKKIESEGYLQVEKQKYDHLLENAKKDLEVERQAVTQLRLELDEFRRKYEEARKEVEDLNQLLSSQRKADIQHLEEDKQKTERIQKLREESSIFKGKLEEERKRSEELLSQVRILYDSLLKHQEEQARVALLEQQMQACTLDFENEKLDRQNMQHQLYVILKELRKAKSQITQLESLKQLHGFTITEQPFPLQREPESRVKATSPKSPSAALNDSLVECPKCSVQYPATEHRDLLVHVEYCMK

[3] = target: T3, full-length mouse CEP55 (mouse, UniProt Q8BT07 1-462); assay: yeast two-hybrid
T3 construct: whole, on cells; Yeast two-hybrid fusion with a GAL4 domain (pGBKT7 or pGADT7)
T3 sequence (looked up): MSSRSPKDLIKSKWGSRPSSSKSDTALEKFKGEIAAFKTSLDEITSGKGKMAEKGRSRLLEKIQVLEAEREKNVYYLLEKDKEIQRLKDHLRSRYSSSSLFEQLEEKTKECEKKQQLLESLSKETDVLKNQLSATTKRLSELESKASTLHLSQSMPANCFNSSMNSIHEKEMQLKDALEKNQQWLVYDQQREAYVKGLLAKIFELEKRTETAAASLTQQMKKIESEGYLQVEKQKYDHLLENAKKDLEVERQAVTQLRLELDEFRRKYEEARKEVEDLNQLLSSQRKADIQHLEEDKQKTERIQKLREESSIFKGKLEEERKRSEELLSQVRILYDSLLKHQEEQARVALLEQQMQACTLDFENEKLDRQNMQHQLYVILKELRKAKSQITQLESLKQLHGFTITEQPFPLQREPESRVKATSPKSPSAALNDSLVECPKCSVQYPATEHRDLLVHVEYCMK
Protocol: Protein-protein interactions were evaluated by using the Matchmaker Two-Hybrid System 3 (Clontech) as described previously (10). Mouse full-length TEX14 and MLKP1 were previously subcloned into the Matchmaker GAL4 two-hybrid pGBKT7 and pGADT7 vectors (10). The constructs of full-length mouse and human CEP55, human TEX14, truncated mouse CEP55-C1, and truncated mouse TEX14-T1, T2, T1[…]T2, T3, T4, and T4-C were made by using the Matchmaker GAL4 two-hybrid pGBKT7 bait vector and pGADT7 prey vectors. Some Y2H interactions were examined with an oxygen biosensor assay (Clontech PT3584-1) that measured the fluorescence emitted by an oxygen-sensing platform that detects GAL4.
To determine the relevance of this GPPX3Y motif as it relates to the interaction of TEX14 with CEP55, we performed yeast two-hybrid assays with mouse TEX14 amino acids 756 to 815 that contain the GPPX3Y motif (FIG. 3A). These 60 amino acids interacted with full-length CEP55 (FIGS. 3B and C). Conversely, an 80-amino-acid fragment of CEP55 (C1) that contains the hinge region interacted with full-length TEX14, the C terminus (T3), and GPPX3Y-containing fragment (T4) but not a shorter sequence that lacked the GPPX3Y motif (T4-C) (FIG. 3A to C). Thus, similar GPPX3Y-containing regions of TEX14, ALIX, and TSG101 interact with the hinge region of CEP55.

Molecule: region including the GPPX3Y motif of human TSG101 (TSG) (from UniProt Q99816 131-190)
binding [1]: binds

B1: full-length mouse TEX14 (other, UniProt Q7M6U3 1-1450, looked up)
chain: MSRGAPFPVPCPVLLGTFTDDSLEAQLHEYAKQGNCVKLKKILKKGVCVDAVNTQGQSALFVAALLGHVKLVDVLVDYGSDPNHRCFDGSTPVHAAAFSGNQWILSKLLTAGGDLRLHDEKGRNPQAWALTAGKDRSTQMVEFMQRCTSHMKAIIQGFSYDLLKKIDSPQRLIGSPPWFGSLIQGSPNSSPNRQLKPGIISAQNIYSFGFGKFYLTSGMQLTYPGSLPVIGEKEVVQADDEPTFSFFSGPYMVMTNLVWNRSRVTVKELNLPTRPHCSRLRLADLLIAEQEHSSNLRHPNLLQLMAVCLSRDLEKIRLVYERITVGTLFSVLHERRSQFPVLHMEVIVHLLLQVADALIYLHSRGFIHRSLSSYAVHIVSAGEARLTNLEYLTESQDSGAHRNVTRMPLPTQLYNWAAPEVVLQKAATVKSDIYSFSVIIQEILTDSIPWNGLDGSLVKETIALGNYLEADVRLPEPYYDIVKSGIHAKQKNRTMNLQDIRYILKNDLKEFIGAQKTQPTESPRGQSYEPHPDVNICLGLTSEYQKDPPDLDIKELKEMGSQPHSPTDHSFLTVKPTLAPQTLDSSLSAQKPDNANVPSPPAACLAEEVRSPTASQDSLCSFEINEIYSGCLTLGTDKEEECLGTAASPEGDRPNQGDELPSLEEELDKMERELHCFCEEDKSISEVDTDLLFEDDDWQSDSLGSLNLPEPTREAKGKTSSWSKTDEYVSKCVLNLKISQVMMQQSAEWLRKLEQEVEELEWAQKELDSQCSSLRDASLKFANAKFQPAVGPPSLAYLPPVMQLPGLKQPENGGTWLTLARSPGNEREFQEGHFSKKPEKLSACGWKPFTQVSEESRGDCSELNNQLPTLRGPGKQSTGEQLPSTQEARESLEKNTNQNSRSMASVSSEIYATKSRNNEDNGEAHLKWRLAVKEMAEKAVSGQLLLPPWNPQSSAPFESKVENESTPLPRPPIRGPESTEWQHILEYQRENDEPKGNTKFGKMDNSDCDKNKHSRWTGLQRFTGIRYPFFRNHEQPEQNEASQASCDTSVGTEKFYSTSSPIGDDFERFQDSFAQRQGYVEENFQIREIFEKNAEILTKPQFQAIQCAEDKQDETLGETPKELKEKNTSLTDIQDLSSITYDQDGYFKETSYKTPKLKHAPTSASTPLSPESISSAASHYEDCLENTTFHVKRGSTFCWNGQEAMRTLSAKFTTVRERAKSLESLLASSKSLPAKLTDSKRLCMLSETGSSNVSAAFVTSTHATKRKSLPRELAEATSQQHLDELPPPAQELLDEIEQLKQQQVSSLASHENTARDLSVTNKDKKHLEEQETNSSKDSSFLSSREIQDLEDTERAHSSLDEDLERFLQSPEENTALLDPTKGSTREKKNKDQDVVEQKRKKKESIKPERRESDSSLGTLEEDELKPCFWKRLGWSEPSRIIVLDQSDLSD
notes: whole, on cells; In the yeast two-hybrid assay it stood as a fusion with a GAL4 domain (pGBKT7 bait or pGADT7 prey vector)
binding [2]: binds

Other lines, results leading:

binding [1]: binds
Molecule: region including the GPPX3Y motif of human ALIX (ALIX) (from UniProt Q8WUM4 771-830)

binding [3]: binds
B2: long C-terminal domain of mouse TEX14 (T3) (protein, UniProt Q7M6U3 513-1450, looked up)
chain: GAQKTQPTESPRGQSYEPHPDVNICLGLTSEYQKDPPDLDIKELKEMGSQPHSPTDHSFLTVKPTLAPQTLDSSLSAQKPDNANVPSPPAACLAEEVRSPTASQDSLCSFEINEIYSGCLTLGTDKEEECLGTAASPEGDRPNQGDELPSLEEELDKMERELHCFCEEDKSISEVDTDLLFEDDDWQSDSLGSLNLPEPTREAKGKTSSWSKTDEYVSKCVLNLKISQVMMQQSAEWLRKLEQEVEELEWAQKELDSQCSSLRDASLKFANAKFQPAVGPPSLAYLPPVMQLPGLKQPENGGTWLTLARSPGNEREFQEGHFSKKPEKLSACGWKPFTQVSEESRGDCSELNNQLPTLRGPGKQSTGEQLPSTQEARESLEKNTNQNSRSMASVSSEIYATKSRNNEDNGEAHLKWRLAVKEMAEKAVSGQLLLPPWNPQSSAPFESKVENESTPLPRPPIRGPESTEWQHILEYQRENDEPKGNTKFGKMDNSDCDKNKHSRWTGLQRFTGIRYPFFRNHEQPEQNEASQASCDTSVGTEKFYSTSSPIGDDFERFQDSFAQRQGYVEENFQIREIFEKNAEILTKPQFQAIQCAEDKQDETLGETPKELKEKNTSLTDIQDLSSITYDQDGYFKETSYKTPKLKHAPTSASTPLSPESISSAASHYEDCLENTTFHVKRGSTFCWNGQEAMRTLSAKFTTVRERAKSLESLLASSKSLPAKLTDSKRLCMLSETGSSNVSAAFVTSTHATKRKSLPRELAEATSQQHLDELPPPAQELLDEIEQLKQQQVSSLASHENTARDLSVTNKDKKHLEEQETNSSKDSSFLSSREIQDLEDTERAHSSLDEDLERFLQSPEENTALLDPTKGSTREKKNKDQDVVEQKRKKKESIKPERRESDSSLGTLEEDELKPCFWKRLGWSEPSRIIVLDQSDLSD
